Experimental data: the supplement of paper PMC10849652
The list shows a part of the results.

By UniProt entry, the sequences of proteins in these tests, tags left out. Where a name states a change or a piece, a line headed by the entry shows the natural chain unless it says otherwise.
UniProt O76082: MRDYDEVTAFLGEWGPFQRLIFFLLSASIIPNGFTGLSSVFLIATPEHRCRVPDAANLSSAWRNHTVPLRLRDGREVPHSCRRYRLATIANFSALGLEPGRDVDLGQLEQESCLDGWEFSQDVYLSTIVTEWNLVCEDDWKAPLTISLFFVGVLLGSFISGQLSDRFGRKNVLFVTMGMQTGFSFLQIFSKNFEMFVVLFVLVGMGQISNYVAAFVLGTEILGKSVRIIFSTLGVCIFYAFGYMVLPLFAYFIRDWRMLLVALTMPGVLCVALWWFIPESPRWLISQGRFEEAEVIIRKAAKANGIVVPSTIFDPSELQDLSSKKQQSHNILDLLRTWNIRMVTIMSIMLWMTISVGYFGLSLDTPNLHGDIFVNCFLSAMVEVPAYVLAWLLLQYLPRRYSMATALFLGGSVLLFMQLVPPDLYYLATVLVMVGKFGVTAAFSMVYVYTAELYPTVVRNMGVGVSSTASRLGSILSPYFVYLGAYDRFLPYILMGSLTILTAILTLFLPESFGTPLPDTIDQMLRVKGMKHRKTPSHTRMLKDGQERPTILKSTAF
UniProt Q92536: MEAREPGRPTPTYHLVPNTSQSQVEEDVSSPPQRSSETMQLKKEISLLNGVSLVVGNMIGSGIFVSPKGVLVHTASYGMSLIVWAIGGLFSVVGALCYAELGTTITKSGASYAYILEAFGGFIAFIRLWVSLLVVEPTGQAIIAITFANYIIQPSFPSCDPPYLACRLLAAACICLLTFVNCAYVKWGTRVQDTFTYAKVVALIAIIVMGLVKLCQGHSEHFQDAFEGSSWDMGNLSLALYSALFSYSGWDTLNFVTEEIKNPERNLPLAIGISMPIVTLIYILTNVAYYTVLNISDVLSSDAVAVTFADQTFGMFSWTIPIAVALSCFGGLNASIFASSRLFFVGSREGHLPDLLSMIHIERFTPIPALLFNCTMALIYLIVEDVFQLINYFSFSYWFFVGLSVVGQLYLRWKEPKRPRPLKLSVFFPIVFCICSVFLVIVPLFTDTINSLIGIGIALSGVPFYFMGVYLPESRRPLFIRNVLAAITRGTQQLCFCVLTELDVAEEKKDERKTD
UniProt P12236: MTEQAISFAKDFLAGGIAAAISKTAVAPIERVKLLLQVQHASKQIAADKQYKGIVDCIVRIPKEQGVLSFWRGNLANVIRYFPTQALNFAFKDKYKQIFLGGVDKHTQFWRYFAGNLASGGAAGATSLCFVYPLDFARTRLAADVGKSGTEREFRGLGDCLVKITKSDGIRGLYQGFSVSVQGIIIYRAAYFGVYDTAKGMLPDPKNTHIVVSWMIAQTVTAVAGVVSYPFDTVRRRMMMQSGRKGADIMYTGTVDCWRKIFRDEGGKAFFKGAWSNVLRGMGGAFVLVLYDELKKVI
UniProt Q8IYB5: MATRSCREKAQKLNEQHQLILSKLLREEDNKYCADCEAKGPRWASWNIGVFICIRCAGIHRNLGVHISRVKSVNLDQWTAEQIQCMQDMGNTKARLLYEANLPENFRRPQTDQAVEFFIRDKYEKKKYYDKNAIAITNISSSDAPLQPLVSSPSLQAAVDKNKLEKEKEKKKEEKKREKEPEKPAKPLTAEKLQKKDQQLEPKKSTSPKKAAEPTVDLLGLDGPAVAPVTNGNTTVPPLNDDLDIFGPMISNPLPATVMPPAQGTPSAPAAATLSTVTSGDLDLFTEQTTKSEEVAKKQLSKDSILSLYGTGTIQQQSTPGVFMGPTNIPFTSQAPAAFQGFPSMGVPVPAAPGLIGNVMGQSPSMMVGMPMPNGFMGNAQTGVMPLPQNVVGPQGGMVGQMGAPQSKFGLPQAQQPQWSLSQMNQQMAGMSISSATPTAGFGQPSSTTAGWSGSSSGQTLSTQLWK
UniProt O00400: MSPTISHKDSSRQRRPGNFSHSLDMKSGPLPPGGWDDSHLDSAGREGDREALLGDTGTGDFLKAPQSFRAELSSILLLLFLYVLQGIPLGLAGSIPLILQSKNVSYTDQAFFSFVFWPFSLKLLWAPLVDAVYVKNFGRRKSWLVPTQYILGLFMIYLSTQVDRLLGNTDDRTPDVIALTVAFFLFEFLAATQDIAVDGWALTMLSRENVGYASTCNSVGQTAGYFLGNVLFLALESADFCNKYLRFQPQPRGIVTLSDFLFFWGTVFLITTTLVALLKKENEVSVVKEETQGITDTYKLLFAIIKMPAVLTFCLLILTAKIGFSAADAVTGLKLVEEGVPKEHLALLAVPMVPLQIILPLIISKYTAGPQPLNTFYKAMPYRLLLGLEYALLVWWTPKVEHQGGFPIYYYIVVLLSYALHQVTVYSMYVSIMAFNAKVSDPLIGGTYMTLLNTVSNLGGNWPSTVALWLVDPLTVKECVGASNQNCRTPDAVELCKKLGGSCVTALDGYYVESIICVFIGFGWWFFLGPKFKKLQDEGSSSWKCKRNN
UniProt O15431: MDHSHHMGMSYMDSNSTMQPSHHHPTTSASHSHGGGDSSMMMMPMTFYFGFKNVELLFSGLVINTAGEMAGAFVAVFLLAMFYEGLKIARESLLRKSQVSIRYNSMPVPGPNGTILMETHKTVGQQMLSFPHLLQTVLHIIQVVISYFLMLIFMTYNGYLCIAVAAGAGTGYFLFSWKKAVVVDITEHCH
UniProt O43772: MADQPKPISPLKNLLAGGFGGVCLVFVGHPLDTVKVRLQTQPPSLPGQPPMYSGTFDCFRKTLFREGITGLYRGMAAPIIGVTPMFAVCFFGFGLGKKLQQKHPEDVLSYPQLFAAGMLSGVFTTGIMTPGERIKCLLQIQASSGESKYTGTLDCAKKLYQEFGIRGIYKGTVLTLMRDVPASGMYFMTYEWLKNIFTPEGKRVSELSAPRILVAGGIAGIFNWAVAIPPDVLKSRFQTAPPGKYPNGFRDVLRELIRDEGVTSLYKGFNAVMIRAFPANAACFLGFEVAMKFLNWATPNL
UniProt Q96CW6: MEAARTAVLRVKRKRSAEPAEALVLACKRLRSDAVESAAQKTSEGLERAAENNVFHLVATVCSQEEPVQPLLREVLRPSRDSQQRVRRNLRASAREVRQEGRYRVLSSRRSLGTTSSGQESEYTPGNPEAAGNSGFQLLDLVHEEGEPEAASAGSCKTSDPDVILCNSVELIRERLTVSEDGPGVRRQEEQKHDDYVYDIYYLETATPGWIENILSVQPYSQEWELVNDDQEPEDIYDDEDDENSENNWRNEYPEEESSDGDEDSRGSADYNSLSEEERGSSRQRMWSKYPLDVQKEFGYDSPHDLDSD
UniProt Q6J4K2: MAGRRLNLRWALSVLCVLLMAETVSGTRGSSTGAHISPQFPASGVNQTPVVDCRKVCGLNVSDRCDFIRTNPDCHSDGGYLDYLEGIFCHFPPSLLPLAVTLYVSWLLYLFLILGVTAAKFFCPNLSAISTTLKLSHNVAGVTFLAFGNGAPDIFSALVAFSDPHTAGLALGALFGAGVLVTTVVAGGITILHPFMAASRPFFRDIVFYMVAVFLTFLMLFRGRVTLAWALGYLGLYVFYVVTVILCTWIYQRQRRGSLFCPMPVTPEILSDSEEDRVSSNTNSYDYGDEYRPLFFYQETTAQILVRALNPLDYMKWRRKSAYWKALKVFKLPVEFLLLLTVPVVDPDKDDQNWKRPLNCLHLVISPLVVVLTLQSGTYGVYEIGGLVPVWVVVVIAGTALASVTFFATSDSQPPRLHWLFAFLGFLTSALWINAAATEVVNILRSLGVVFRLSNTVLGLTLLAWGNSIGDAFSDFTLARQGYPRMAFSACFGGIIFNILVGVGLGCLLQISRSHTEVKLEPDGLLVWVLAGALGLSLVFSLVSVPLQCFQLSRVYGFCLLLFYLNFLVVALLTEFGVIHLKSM
UniProt Q9H2G2: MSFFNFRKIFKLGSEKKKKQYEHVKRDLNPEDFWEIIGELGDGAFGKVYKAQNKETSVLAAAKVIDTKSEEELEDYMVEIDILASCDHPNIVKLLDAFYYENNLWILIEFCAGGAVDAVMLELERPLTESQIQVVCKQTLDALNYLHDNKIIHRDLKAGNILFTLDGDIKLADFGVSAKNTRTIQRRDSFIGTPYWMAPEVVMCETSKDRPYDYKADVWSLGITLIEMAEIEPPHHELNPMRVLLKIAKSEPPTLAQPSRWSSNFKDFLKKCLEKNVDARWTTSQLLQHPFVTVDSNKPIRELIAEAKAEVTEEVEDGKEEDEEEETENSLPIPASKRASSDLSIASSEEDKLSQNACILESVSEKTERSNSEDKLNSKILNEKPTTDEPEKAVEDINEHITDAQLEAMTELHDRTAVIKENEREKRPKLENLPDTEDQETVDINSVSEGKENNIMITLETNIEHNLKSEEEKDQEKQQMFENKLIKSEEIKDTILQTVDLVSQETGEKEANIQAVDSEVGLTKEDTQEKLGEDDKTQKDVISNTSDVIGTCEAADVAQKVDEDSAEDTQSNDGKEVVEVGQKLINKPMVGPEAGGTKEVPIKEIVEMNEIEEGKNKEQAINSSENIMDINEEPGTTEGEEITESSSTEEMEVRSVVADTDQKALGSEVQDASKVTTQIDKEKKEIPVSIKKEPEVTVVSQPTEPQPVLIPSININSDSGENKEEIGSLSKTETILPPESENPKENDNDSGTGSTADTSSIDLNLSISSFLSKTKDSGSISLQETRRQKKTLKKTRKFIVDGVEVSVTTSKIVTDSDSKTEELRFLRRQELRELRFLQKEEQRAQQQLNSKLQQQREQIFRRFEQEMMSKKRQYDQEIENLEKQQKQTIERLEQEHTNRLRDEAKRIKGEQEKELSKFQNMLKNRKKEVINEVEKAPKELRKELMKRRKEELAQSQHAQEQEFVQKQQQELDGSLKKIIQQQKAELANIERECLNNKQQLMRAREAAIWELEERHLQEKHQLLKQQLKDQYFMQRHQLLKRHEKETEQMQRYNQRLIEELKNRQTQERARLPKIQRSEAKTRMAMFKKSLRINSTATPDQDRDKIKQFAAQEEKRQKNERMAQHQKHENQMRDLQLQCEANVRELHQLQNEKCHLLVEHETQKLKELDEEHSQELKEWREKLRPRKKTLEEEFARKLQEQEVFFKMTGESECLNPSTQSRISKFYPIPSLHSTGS
UniProt Q8N1S5: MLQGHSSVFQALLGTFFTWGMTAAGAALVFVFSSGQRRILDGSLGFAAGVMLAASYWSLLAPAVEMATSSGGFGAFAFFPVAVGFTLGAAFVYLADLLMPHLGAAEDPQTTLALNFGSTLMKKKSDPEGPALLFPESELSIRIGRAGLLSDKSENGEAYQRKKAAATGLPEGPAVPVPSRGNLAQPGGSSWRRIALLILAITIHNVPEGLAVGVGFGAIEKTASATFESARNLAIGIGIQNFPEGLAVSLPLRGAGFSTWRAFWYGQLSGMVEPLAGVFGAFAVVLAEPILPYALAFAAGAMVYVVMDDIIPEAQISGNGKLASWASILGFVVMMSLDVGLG
UniProt P48067: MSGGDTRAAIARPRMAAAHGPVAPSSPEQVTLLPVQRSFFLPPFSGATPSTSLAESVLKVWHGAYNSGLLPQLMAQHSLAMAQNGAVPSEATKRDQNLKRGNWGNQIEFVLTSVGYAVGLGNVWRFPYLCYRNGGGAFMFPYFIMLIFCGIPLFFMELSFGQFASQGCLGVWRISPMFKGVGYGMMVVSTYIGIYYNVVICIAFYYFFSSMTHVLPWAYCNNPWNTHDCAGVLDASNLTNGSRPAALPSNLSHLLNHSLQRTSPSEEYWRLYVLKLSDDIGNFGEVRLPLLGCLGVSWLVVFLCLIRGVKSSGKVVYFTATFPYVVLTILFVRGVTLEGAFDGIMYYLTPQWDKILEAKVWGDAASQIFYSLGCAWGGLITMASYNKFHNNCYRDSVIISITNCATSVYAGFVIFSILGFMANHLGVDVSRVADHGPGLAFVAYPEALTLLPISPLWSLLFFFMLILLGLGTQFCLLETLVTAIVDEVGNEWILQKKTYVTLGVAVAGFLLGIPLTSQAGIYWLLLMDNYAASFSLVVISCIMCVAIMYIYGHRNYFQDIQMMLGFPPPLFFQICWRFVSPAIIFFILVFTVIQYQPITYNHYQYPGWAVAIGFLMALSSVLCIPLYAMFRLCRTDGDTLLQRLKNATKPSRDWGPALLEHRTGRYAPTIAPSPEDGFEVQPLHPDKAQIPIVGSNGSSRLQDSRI
UniProt Q02978: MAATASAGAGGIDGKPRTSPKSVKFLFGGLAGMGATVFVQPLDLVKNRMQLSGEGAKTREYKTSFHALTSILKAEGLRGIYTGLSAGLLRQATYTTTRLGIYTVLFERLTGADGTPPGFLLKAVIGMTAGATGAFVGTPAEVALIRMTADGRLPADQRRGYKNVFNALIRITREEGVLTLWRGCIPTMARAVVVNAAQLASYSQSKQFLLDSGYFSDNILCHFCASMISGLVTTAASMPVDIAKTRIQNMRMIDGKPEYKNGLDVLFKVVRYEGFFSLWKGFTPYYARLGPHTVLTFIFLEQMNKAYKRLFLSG

Tests used:
Assay in all cases: log2 fold change, soluble protein after heating vs DMSO (PISA); higher = thermal stabilisation; K562 lysate, 10 uM; active = over 0.2 and 3.5 SD of the protein, either way, in both replicates (recomputed)
[1] = compound: NCC(=O)Nc1ccc(-n2nc(C(F)(F)F)cc2-c2ccc3c(ccc4ccccc43)c2)cc1
In short: (§1)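 K562 pellets were dounce-homogenised in PBS pH 7.4 with 1 mM MgCl2, and the crude extract at 1 mg/mL protein was treated with 10 μM compound for 30 min. Aliquots were heated for 3 min across 48°C-58°C, pooled, and brought to 0.5% NP-40 at 4°C; soluble protein was the supernatant after 21,000xg for 90 min. Soluble protein was quantified by TMTpro 16plex LC-MS/MS with channel sums equalised, and reported as log2 fold change in thermal stability against DMSO controls, with values from duplicates.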

[2] = compound: O=C(CCCCCCC(=O)Nc1ccccc1)NO [vorinostat]
In short: as §1

[3] = compound: O=C(O)c1ccc2c(c1)nc(Nc1cccc(Cl)c1)c1ccncc12 [silmitasertib]
In short: as §1

[4] = compound: O=C1NC(=O)C(c2cnc3ccccn23)=C1c1cn2c3c(cc(F)cc13)CN(C(=O)N1CCCCC1)CC2
In short: as §1

[5] = compound: c1cn2cc(-c3ccc4cn[nH]c4c3)nc(Nc3ccc(N4CCOCC4)cc3)c2n1 [entospletinib]
In short: as §1

Measured: log2 fold change

SLC22A5 isoform 3 (UniProt O76082)
inactive: [1] -0.202 | [2] -0.095 | [3] -0.071 | [4] -0.324

SLC7A6 (UniProt Q92536)
inactive: [1] 0.006 | [2] -0.053 | [3] -0.074 | [4] -0.004 | [5] 0.036

SLC25A6 (UniProt P12236)
inactive: [1] -0.003 | [2] 0.012 | [3] -0.007 | [4] -0.034 | [5] 0.034

SLC36A1 (UniProt Q7Z2H8)
inactive: [1] 0.252 | [2] 0.238 | [3] -0.018 | [4] 0.059 | [5] 0.115

SLC7A1 (UniProt P30825)
inactive: [1] -0.028 | [2] -0.046 | [3] 0.02 | [4] -0.102 | [5] 0.066

SMAP1 isoform 2 (UniProt Q8IYB5)
inactive: [1] -0.009 | [2] 0.089 | [3] -0.051 | [4] -0.057 | [5] -0.01

SLC33A1 (UniProt O00400)
inactive: [1] -0.004 | [2] 0.094 | [3] -0.026 | [4] -0.028 | [5] -0.002

SLC31A1 (UniProt O15431)
inactive: [1] 0.062 | [2] 0.015 | [3] 0.028 | [4] -0.096

SLC25A20 (UniProt O43772)
inactive: [1] -0.041 | [2] 0.046 | [3] -0.012 | [4] 0.012 | [5] 0

SMARCA2 (UniProt P51531)
inactive: [1] 0.022 | [2] -0.045 | [3] 0.044 | [4] 0.025 | [5] -0.03

SLC30A5 (UniProt Q8TAD4)
inactive: [1] -0.026 | [2] 0.046 | [3] -0.008 | [4] -0.049 | [5] 0.018

SLC7A6OS (UniProt Q96CW6)
inactive: [1] -0.002 | [2] 0.046 | [3] 0.013 | [4] 0 | [5] -0.022

Copied from the entries so far (2 entries):
SMARCA2 (UniProt P51531)
inactive: [1] 0.022 | [2] -0.045 | [3] 0.044 | [4] 0.025 | [5] -0.03

SLC30A5 (UniProt Q8TAD4)
inactive: [1] -0.026 | [2] 0.046 | [3] -0.008 | [4] -0.049 | [5] 0.018

(continued)

SLC25A40 (UniProt Q8TBP6)
inactive: [1] 0.005 | [2] -0.058 | [3] -0.024 | [4] -0.014 | [5] -0.036

SLIRP (UniProt Q9GZT3)
inactive: [1] 0.003 | [2] 0.004 | [3] -0.002 | [4] 0.012 | [5] -0.011

SLC38A6 isoform 2 (UniProt Q8IZM9)
inactive: [1] 0.016 | [2] 0.34 | [3] -0.115

SLC8B1 (UniProt Q6J4K2)
inactive: [1] -0.196

SLK isoform 2 (UniProt Q9H2G2)
inactive: [1] -0.005 | [2] -0.036 | [3] 0.205 | [4] 0.008 | [5] 0.017

SLC25A36 (UniProt Q96CQ1)
inactive: [1] -0.172 | [2] -0.071 | [3] 0.001 | [4] 0.033 | [5] 0.013

SLC3A2 isoform 3 (UniProt P08195)
inactive: [1] 0.011 | [2] 0.143 | [3] -0.019 | [4] -0.004 | [5] 0.009

SLC35A1 (UniProt P78382)
inactive: [1] 0.062 | [2] -0.267 | [3] 0.15 | [4] -0.03

SLC39A11 (UniProt Q8N1S5)
inactive: [1] -0.076 | [2] 0.103 | [3] -0.015 | [4] 0.058 | [5] -0.137

SLC25A16 (UniProt P16260)
inactive: [1] 0.122 | [2] -0.127 | [3] 0.097 | [4] 0

SLC25A42 (UniProt Q86VD7)
inactive: [1] -0.059 | [2] 0.016 | [3] -0.034 | [4] -0.03 | [5] -0.023

SLC6A9 isoform 2 (UniProt P48067)
inactive: [1] -0.045 | [2] 0.008 | [3] -0.027 | [4] 0.011 | [5] -0.002

SLC25A11 (UniProt Q02978)
inactive: [1] 0.031 | [2] 0.051 | [3] 0.053 | [4] -0.025 | [5] -0.003
